# Results published in the supplement of paper PMC12578635.
# ± gives the standard deviation of the averaged measurements. Some of the results follow. Many values rest on one well or one pass, so single values are uncertain.
# Test system: RAW 264.7 macrophages infected with S. aureus JE2-lux
# Test: host macrophage viability (CellTiter-Fluor) relative to DMSO vehicle; higher = more viable host cells
# Settings: 10 µM; treatment time 4 h; gentamicin 50 µg/ml
row,Structure (SMILES),host macrophage viability
1,COc1ccc(OC)c(NC(=O)CC2Sc3ccccc3NC2=O)c1 (stereo not drawn),120%
2,O=C(NCC1CCCCC1)C1CCCN(C(=O)NCc2ccccc2)C1 (stereo not drawn),112%
3,CC1=C(C(=O)Nc2ccccc2F)C(c2ccc(N(C)C)cc2)NC(=O)N1 (stereo not drawn),115%
4,CCc1noc2ncnc(N3CCCC(C(=O)NCc4ccccc4F)C3)c12 (stereo not drawn),124%
5,Cc1sc2ncnc(NCCC3=CCCCC3)c2c1S(=O)(=O)N1CCCCC1,134%
6,Cc1n[nH]c2c1C(c1cccs1)C(C#N)=C(N)O2 (stereo not drawn),105%
7,Clc1cc(Cl)c2nc(N3CCCCC3)sc2c1,105 ± 6.6%
8,C=CCOC(=O)C1=C(C)Nc2[nH]c(=O)[nH]c(=O)c2C1c1cccc(O)c1 (stereo not drawn),121%
9,O=C(O)CCc1nnc(SCC(=O)Nc2ccc(Cl)cc2)[nH]c1=O,110%
10,CSc1nc2ccc3nc(NC(=O)C4COc5ccccc5O4)sc3c2s1 (stereo not drawn),115%
11,Cc1nc(N2CCOCC2)ncc1C(=O)NC1CCCC1,111%
12,CCN1C(=O)NC2(CCN(CC(=O)Nc3ccc4c(c3)OCO4)CC2)C1=O,110%
13,COc1ccc(CCNC(=O)Cn2ncn3nc4c(c3c2=O)CCCC4)cc1OC,120%
14,Cc1ccc(-n2ccn3c(CCCC(=O)O)nnc3c2=O)cc1C,86.3%
15,CCOCCCNC(=O)Cn1nc(-c2ccco2)cc(N)c1=O,117%
16,Cc1ccc(-c2nc(Cn3nnc(-c4nc(-c5ccccc5Cl)no4)c3C)c(C)o2)cc1,123%
17,CCOc1cccc(C2Nc3c(C)cc(C)cc3[C@H]3OCCC[C@@H]23)c1OC (stereo partly drawn),120%
18,O=C1NC(c2ccc3c(c2)OCO3)C(C(=O)c2ccccc2)C(O)(C(F)(F)F)N1 (stereo not drawn),125%
19,N#C/C(=C\c1ccc(-c2ccccc2[N+](=O)[O-])o1)C(=O)Nn1cnnc1,101 ± 21%
20,COc1ccc(NC(=O)N(CCc2ccc(OC)c(OC)c2)Cc2cc3cc(C)ccc3[nH]c2=O)cc1,112%
21,COc1ccccc1/C=C/C=C(\C#N)c1nc2ccccc2c(=O)[nH]1,117%
22,CN(Cc1cccc2ncccc12)C(=O)c1cnn(-c2ccc(F)cc2)c1,122%
23,CCOC(=O)c1sc(NC(=O)CSc2ncnc3sc(C)c(C)c23)c(C(=O)OCC)c1C,101 ± 10%

# Entries from the list above that contain a furan ring, fused or not (two):
row,Structure (SMILES),host macrophage viability
15,CCOCCCNC(=O)Cn1nc(-c2ccco2)cc(N)c1=O,117%
19,N#C/C(=C\c1ccc(-c2ccccc2[N+](=O)[O-])o1)C(=O)Nn1cnnc1,101 ± 21%

# (continued)

row,Structure (SMILES),host macrophage viability
1,CC(=O)Nc1ccc(NC(=O)c2ncoc2-c2ccc(F)cc2)cc1C,112%
2,COC(CNC(=O)c1c(O)nc2ccccn2c1=O)OC,133%
3,Cc1nc(Nc2ccccc2)c([N+](=O)[O-])c(Nc2ccccc2)n1,106%
4,O=C(c1cnc2ccccc2c1S(=O)(=O)c1cccc(F)c1)N1CCSCC1,112%
5,O=C(CSc1nc(C2CC2)nc2ccccc12)Nc1ccc2c(c1)OCO2,115%
6,Cn1c(=O)c2c(nc(NCc3ccccc3)n2Cc2cccc3ccccc23)n(C)c1=O,129%
7,CCn1/c(=N\C(=O)CS(=O)(=O)c2ccccc2)sc2cc([N+](=O)[O-])ccc21,122%
8,Cc1nc2nc(Cc3cccc(F)c3)nn2c(NCc2cccs2)c1C,126%
9,O=C(CCC(=O)Nc1noc2ccccc12)NCCc1ccc(Cl)cc1,78.2%
10,O=C(/C=C/c1ccccc1)Nc1nnc(-c2ccc(F)cc2)o1,117%
11,c1coc(-c2nn3c(-c4ccco4)nnc3s2)c1,108%
12,COc1ccc(CCNC(=O)C(=O)Nc2ccc(F)c(F)c2)cc1,110%
13,CCOc1ccc(NC(=S)NCCNc2nc3cc(C)cc(C)c3cc2C#N)cc1,149%
14,O=C1NC(c2ccc(F)cc2)C(C(=O)c2cccs2)C(O)(C(F)(F)F)N1 (stereo not drawn),112%
15,COc1ccc2nc(CN[C@@H]3CCC(=O)N[C@H]3c3cc(F)cc(F)c3)ccc2c1,110%
16,COc1ccc2cc(C)c3nn(CCNC(=O)c4cscn4)c(=O)n3c2c1,123%
17,N#Cc1ccccc1NC(=O)C(=O)NCCSc1nc(-c2ccccc2)c[nH]1,120%
18,Cc1cc2oc(C(=O)NC3CCCOC3)cc(=O)c2cc1C (stereo not drawn),99.3%
19,CC(=O)Nc1nc2cc(NC(=O)c3cccnc3)ccc2s1,126%
20,O=S(=O)(c1cccc2cccnc12)N1CCN(Cc2noc3ccccc23)CC1,125%
21,CCOC(=O)c1nn(-c2ccccc2)c(=O)cc1OCC(=O)Nc1cc(OC)cc(OC)c1,103%
22,O=C(NCc1ccc2c(c1)OCO2)c1ccc(=O)[nH]n1,114%
23,Cc1c(Cc2ccc3c(c2)OCO3)sc(NC(=O)c2ccc(Br)s2)c1C#N,147%

# Shown with bars between the fields: entries from further up.
row | Structure (SMILES) | host macrophage viability
2 | COC(CNC(=O)c1c(O)nc2ccccn2c1=O)OC | 133%
3 | Cc1nc(Nc2ccccc2)c([N+](=O)[O-])c(Nc2ccccc2)n1 | 106%

# Next part:

row,Structure (SMILES),host macrophage viability
1,Cc1cccc(-c2nc3c4ccccc4n(CC(=O)Nc4ccccc4Cl)c(=O)n3n2)c1,109%
2,CCOC(=O)c1ccccc1NC(=O)CSc1nc2[nH]ncc2c(=O)[nH]1,117%
3,COc1ccc(Cl)cc1NC(=O)CSc1nnc2c3cc(C)ccc3n(C)c2n1,109%
4,Cc1cc2c(c(=O)n1CCCN1CCOCC1)C(c1ccc(Cl)cc1)C(C#N)=C(N)O2 (stereo not drawn),106%
5,Cc1cc(C)n(-c2cc(Nc3ccc4c(c3)OCCO4)ncn2)n1,102%
6,N#Cc1ccc(-c2ccco2)nc1SCC(=O)NCc1ccc2c(c1)OCO2,120%
7,CCc1ccccc1NS(=O)(=O)c1cc(-c2ccn[nH]2)cs1,118%
8,Cn1ncc2c1CCc1sc(NC(=O)CC3SC(=O)NC3=O)nc1-2 (stereo not drawn),102%
9,O=C1c2oc3ccccc3c(=O)c2C(c2ccccc2)N1Cc1cccnc1 (stereo not drawn),116%
10,CN1C(=O)N(CC(=O)NC2CCCC2)c2cccnc2N1C,128%
11,CC1Cc2ccccc2N1Cc1nnc(-c2ccccc2)o1 (stereo not drawn),126%
12,COc1nn(C)cc1C(=O)Nc1ccc(C)c(C)c1,115%
13,Cc1cccc(C)c1OCCn1c(CO)nc2ccccc21,148%
14,COc1ccc(-n2ccnc(SCC(=O)NCc3ccccc3)c2=O)cc1OC,127%
15,CC(=O)c1ccc(NC(=O)CSc2ncc(C(=O)Nc3ccc(C)c(C)c3)c(=O)n2C)cc1,123%
16,CCCc1cc(=O)[nH]c2nnc(SCC(=O)NC3CCCC3)n12,106%
17,O=C(CSC1=NS(=O)(=O)c2ccccc2N1)NCC1CCCO1 (stereo not drawn),119%
18,O=C(CSc1ncc(S(=O)(=O)c2ccc(Cl)cc2)c(=O)[nH]1)Nc1ccccc1F,106%
19,CC1CCN(S(=O)(=O)c2ccc(C(=O)Nc3cc(C(F)(F)F)ccc3Cl)cc2)CC1,123%
20,COCCCNC(=O)Cn1c(-c2cccs2)cc2cccnc21,146%
21,CCc1cccc(NC(=O)c2cc3n(n2)CCCN(Cc2ccccc2)C3=O)c1,120%
22,CCOC(=O)C1=C(C)NC(O)=NC1c1cc(Br)c(O)c(OC)c1 (stereo not drawn),116%
